PubChem BioAssay AID1259254, NCATS | 2017
This is one part, drawn at random, of about 59,000 reagents. About 1,550 of all reagents (2.6%) were called active. 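G2 share is only a proxy for re-replication; each gene was hit by three separate siRNAs, and active genes were retested.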 Raw values are not corrected between plates. No sequences are given here. Not given: the amount of reagent.

Purpose: 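Genome-wide screen for genes that prevent DNA re-replication in cancer cells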 (primary screen)
Cell system: human HCT116 colorectal cancer cells
Reagent: single siRNA against human genes
Time to read-out: 3 days
Read-out: 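Imaged Hoechst DNA stain sorts each cell into a cycle phase by DNA amount; per plate, G2 fraction set to 0% for non-targeting and 100% for GMNN siRNA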
Scale: G2 robust z-score and G2 cells, % of GMNN control: higher = more G2 cells, more excess DNA replication; raw share of cells in G2: higher = larger share of cells with G2 DNA content
Call rule: 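An siRNA counts as active if its G2 robust z-score lies at least 5 MADs above the screen median; here such calls match roughly 38% of GMNN control or more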

gene knocked down	PubChem SID	G2 robust z-score	G2 cells, % of GMNN control	raw share of cells in G2 (%)	Outcome
TMEM98 (GeneID 26022)	SID160737472	0.432	6.01	6.67	inactive
TMEM98 (GeneID 26022)	SID160737473	-0.132	2.04	4.82	inactive
TMEM98 (GeneID 26022)	SID160737474	0.05	3.32	4.46	inactive
WDCP (GeneID 80304)	SID160750334	0.0615	3.4	5.86	inactive
WDCP (GeneID 80304)	SID160750335	2.2	18.4	12.4	inactive
WDCP (GeneID 80304)	SID160750336	-0.271	1.06	2.67	inactive
PRSS48 (GeneID 345062)	SID160764836	-0.526	-0.737	5.29	inactive
PRSS48 (GeneID 345062)	SID160764837	-1.31	-6.23	2.42	inactive
PRSS48 (GeneID 345062)	SID160764838	-0.874	-3.18	3.08	inactive
SKP1P2 (GeneID 728622)	SID160726759	2.08	17.6	8.99	inactive
SKP1P2 (GeneID 728622)	SID160726760	-0.665	-1.71	2.44	inactive
SKP1P2 (GeneID 728622)	SID160771973	0.406	5.82	6.16	inactive
ZNF584 (GeneID 201514)	SID160760993	-0.816	-2.78	2.14	inactive
ZNF584 (GeneID 201514)	SID160760994	0.577	7.02	5.6	inactive
ZNF584 (GeneID 201514)	SID160760995	0.397	5.76	5.55	inactive
PLP1 (GeneID 5354)	SID160714489	0.915	9.41	8.97	inactive
PLP1 (GeneID 5354)	SID160714490	1.46	13.3	9.46	inactive
PLP1 (GeneID 5354)	SID160733528	0.525	6.66	5.76	inactive
GPC6 (GeneID 10082)	SID160725136	-1.2	-5.47	2.86	inactive
GPC6 (GeneID 10082)	SID160725142	-0.677	-1.8	3.19	inactive
GPC6 (GeneID 10082)	SID160725152	0.279	4.93	5.2	inactive
E2F6 (GeneID 1876)	SID160730733	1.65	14.6	8.85	inactive
E2F6 (GeneID 1876)	SID160757691	-0.819	-2.79	4.22	inactive
E2F6 (GeneID 1876)	SID160757702	-1.26	-5.9	3.02	inactive
RASL12 (GeneID 51285)	SID160740496	-1.37	-6.69	1.77	inactive
RASL12 (GeneID 51285)	SID160740497	0.414	5.88	8.62	inactive
RASL12 (GeneID 51285)	SID160740498	2.97	23.9	13	inactive
PCP4 (GeneID 5121)	SID160713939	0.855	8.98	8.79	inactive
PCP4 (GeneID 5121)	SID160713940	1.19	11.3	8.7	inactive
PCP4 (GeneID 5121)	SID160733491	-1.15	-5.12	1.5	inactive
GLRB (GeneID 2743)	SID160771558	1.28	12	9.64	inactive
GLRB (GeneID 2743)	SID160771567	-0.478	-0.396	4.65	inactive
GLRB (GeneID 2743)	SID160771575	0.573	7	7.11	inactive
HLA-DQB1 (GeneID 3119)	SID160731065	5.58	42.2	18.4	active
HLA-DQB1 (GeneID 3119)	SID160775006	1.03	10.2	7.52	inactive
HLA-DQB1 (GeneID 3119)	SID160775007	3.48	27.4	17.7	inactive
TRPV5 (GeneID 56302)	SID160745023	-0.297	0.878	5.61	inactive
TRPV5 (GeneID 56302)	SID160745024	0.974	9.82	8.1	inactive
TRPV5 (GeneID 56302)	SID160745025	2.42	20	12.2	inactive
TLR2 (GeneID 7097)	SID160720865	2.52	20.7	12.8	inactive
TLR2 (GeneID 7097)	SID160720972	3.26	25.9	14.5	inactive
TLR2 (GeneID 7097)	SID160721080	5.25	39.9	18.3	active
PDS5A (GeneID 23244)	SID160735817	0.961	9.73	10.3	inactive
PDS5A (GeneID 23244)	SID160735818	1.78	15.5	9.34	inactive
PDS5A (GeneID 23244)	SID160735820	5.25	39.9	17.5	active
APC (GeneID 324)	SID160718270	2.98	23.9	12.9	inactive
APC (GeneID 324)	SID160718280	-0.5	-0.547	4.88	inactive
APC (GeneID 324)	SID160718291	-0.281	0.992	4.36	inactive
CPD (GeneID 1362)	SID160747361	1.23	11.6	9.61	inactive
CPD (GeneID 1362)	SID160747372	-0.715	-2.06	4.18	inactive
CPD (GeneID 1362)	SID160747381	-1.06	-4.46	2.25	inactive
ITK (GeneID 3702)	SID160731151	-0.111	2.19	4.8	inactive
ITK (GeneID 3702)	SID160776038	2.04	17.4	11.3	inactive
ITK (GeneID 3702)	SID160776039	-1.09	-4.67	3.84	inactive
DDB2 (GeneID 1643)	SID160730682	-0.996	-4.04	3.52	inactive
DDB2 (GeneID 1643)	SID160753114	-0.606	-1.3	3.65	inactive
DDB2 (GeneID 1643)	SID160753124	1.16	11.2	8.94	inactive
SPATA31G1 (GeneID 138724)	SID160757616	2.5	20.6	11.9	inactive
SPATA31G1 (GeneID 138724)	SID160757617	1.02	10.2	6.33	inactive
SPATA31G1 (GeneID 138724)	SID160757618	-0.719	-2.09	1.82	inactive
GPA33 (GeneID 10223)	SID160727237	-0.722	-2.11	5.65	inactive
GPA33 (GeneID 10223)	SID160727241	-1.44	-7.2	2.57	inactive
GPA33 (GeneID 10223)	SID160727245	2.01	17.1	9.38	inactive
LOC728688 (GeneID 728688)	SID160726792	-0.161	1.83	3.82	inactive
LOC728688 (GeneID 728688)	SID160772042	-0.995	-4.03	2.38	inactive
LOC728688 (GeneID 728688)	SID160772043	0.727	8.08	5.92	inactive
CES5AP1 (GeneID 649264)	SID160770403	-0.82	-2.81	2.1	inactive
CES5AP1 (GeneID 649264)	SID160770404	0.633	7.42	5.91	inactive
CES5AP1 (GeneID 649264)	SID160770405	-0.2	1.56	3.24	inactive
